PubChem BioAssay AID1347076 (National Center for Advancing Translational Sciences (NCATS), 2019)
About 13,000 (3.2%) of roughly 400,000 compounds were called active. The shares of active, inactive and inconclusive entries below differ from those in the screen. Calls follow the shape of the dose curve; as a rule, active = well fitted cell-killing curve with a large enough effect; inconclusive = small, poorly fitted or top-dose-only effect, or effect the other way; inactive = flat fitted curve, though single readings scatter. Potencies beside an inconclusive call are fits to weak or partial responses and may not hold up.

Experiment: qHTS assay for MDR1-selective chemotherapeutics: Primary screen using the drug-selected MDR subline cells KB-V1; also: nearly all actives have a fitted effect of over 60% in size
Conditions: KB-V1 MDR cells viability, CellTiter-Glo, 72 h; activity change, negative = cytotoxicity: at 46.1 µM (top of the series)
Procedure, shortened: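 Following 72 h at 37 degrees C with compound, KB-V1 cell viability was read by CellTiter-Glo luminescence, medium being phenol-red-free DMEM plus 10% FBS; concentration-response parameters came from normalized, curve-fitted qHTS data.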
% is scaled to controls: 0 for no effect and ±100 for the full control effect; potency is read from the fitted curve at half-maximal effect.

Row | SMILES | activity change, negative = cytotoxicity | Potency
1 | CCOC(=O)N1CCN(C(=O)c2ccc(OC(C)=O)cc2)CC1 | inactive: -0.0623% | –
2 | CCCCn1nnnc1C(c1ccccc1)N1CCN(c2ncccc2C(F)(F)F)CC1 (stereo not drawn) | – | inconclusive: 4.11 µM [cytotoxic, full curve, poor fit]
3 | C=CCC1NS(=O)(=O)OC2CCCCC12 (stereo not drawn) | – | inconclusive: 25.9 µM [cytotoxic, single point]
4 | Cc1cccc2cc(CN(CC3CCCO3)C(=S)NCc3ccco3)c(=O)[nH]c12 (stereo not drawn) | – | active: 4.11 µM
5 | Cc1ccc(Cn2c(CCNc3nc(-c4ccc(Cl)c([N+](=O)[O-])c4)cs3)nc3cc(C(=O)NCCCO)ccc32)cc1 | inactive: 9.67% | –
6 | CC(=O)c1ccc(NS(=O)(=O)c2cc3c(cc2C)N(C(C)=O)CCO3)cc1 | inactive: 20.5% | –
7 | COc1ccc(N(CC(=O)NCc2ccco2)S(=O)(=O)c2ccc(C)cc2)cc1 | – | inconclusive: 13 µM [cytotoxic, partial curve, poor fit]
8 | O=C(N/N=C/c1cc([N+](=O)[O-])ccc1O)c1cccc(NC(=O)c2cccc(Cl)c2)c1 | inactive: 27.6% | –
9 | O=C(Oc1cccc(/C=N/Nc2nc(Nc3ccccc3)nc(N3CCOCC3)n2)c1)c1ccco1 | – | active: 14.6 µM
10 | O=C(CCCN1C(=O)c2ccccc2C1=O)NCCCn1ccnc1 | – | inconclusive: 29.1 µM [rising, single point]
11 | COc1ccc2cc(/C=C/C(=O)N3CCN(CC(=O)N4CCCCCC4)CC3)ccc2c1 | – | active: 14.6 µM
12 | CC(C)(C)c1ccc(C(=O)c2c[nH]c(C(=O)NCCCN3CCOCC3)c2)cc1 | – | active: 18.4 µM
13 | CC1(C)CC(=O)c2c(O)cc(OCC(=O)Nc3ccc(CCO)cc3)cc2O1 | inactive: -0.0815% | –
14 | CCOc1ccc(NS(=O)(=O)c2ccc(NC(=S)NC(=O)CC(C)C)cc2)cc1 | – | inconclusive: 18.4 µM [cytotoxic, single point]
15 | CS(=O)(=O)c1ccc2nc(NC(=O)CC3CCCC3)sc2c1 | – | inconclusive: 29.1 µM [cytotoxic, single point]
16 | CCOC(=O)C1=CN(Cc2cccc(F)c2)S(=O)(=O)N(CC)C1CCc1ccccc1 (stereo not drawn) | – | inconclusive: 29.1 µM [cytotoxic, single point]
17 | Cc1cc(C)cc(OCC(=O)Nc2ccc(N3CCN(C(=O)c4ccco4)CC3)cc2)c1 | – | inconclusive: 3.26 µM [cytotoxic, full curve]
18 | COc1ccccc1CNC(=O)COC(=O)c1ccccn1 | – | inconclusive: 20.6 µM [rising, partial curve, poor fit]
19 | O=C(NCC(=O)N1CCN(C(c2ccccc2)c2ccccc2)CC1)c1ccccc1F | – | inconclusive: 13 µM [cytotoxic, partial curve]
20 | Cc1noc(C)c1COc1ccc(C(=O)Nc2cccnc2)cc1 | – | inconclusive: 29.1 µM [cytotoxic, single point]
21 | CCOC(=O)C1=C(C)N(C)C(=S)NC1c1cc(OC)ccc1OC (stereo not drawn) | – | inconclusive: 16.4 µM [cytotoxic, single point]
22 | COC(=O)Cc1nnc(SCC(=O)Nc2ccccc2)c2ccccc12 | inactive: 23% | –
23 | CCN(CC)C(=O)[C@H]1C[C@H](CC(=O)NC(C)(C)C)C(=O)N2CCc3c([nH]c4ccc(Cl)cc34)[C@]12C | inactive: 12.1% | –

Row | SMILES | activity change, negative = cytotoxicity | Potency
24 | CCc1cc2c(=O)n(Cc3ccco3)c(SCC(=O)NCC3CCCO3)nc2s1 (stereo not drawn) | – | active: 2.59 µM
25 | C/C(=N\NC(=O)c1ccc(NS(=O)(=O)c2cccs2)cc1)c1ccc2c(c1)OCO2 | inactive: 3.43% | –
26 | [O-][N+]1=c2ccc(Nc3ccccc3)cc2=NC12CCCCC2 | – | inconclusive: 29.1 µM [cytotoxic, single point]
27 | COc1cc(NC(=O)C2=C(N3CCOCC3)/C(=C/c3ccc(Cl)cc3)CC2)cc(OC)c1OC | – | inconclusive: 0.0366 µM [cytotoxic, full curve]
28 | Cc1cc(C(=O)COC(=O)c2ccc(O)cc2)c(C)n1CC1CCCO1 (stereo not drawn) | – | inconclusive: 16.4 µM [cytotoxic, single point]
29 | O=C1N=C(N2CCOCC2)S/C1=C\c1cccs1 | inactive: 28% | –
30 | CCOC(=O)N1CCN(C(=O)c2ccccc2NC(=O)COc2ccccc2)CC1 | – | inconclusive: 29.1 µM [cytotoxic, single point]
31 | CC1(C(=O)Nc2ccc(Cl)cc2)Cc2c(-c3cccc(C(N)=O)c3)ccnc2O1 (stereo not drawn) | – | inconclusive: 25.9 µM [cytotoxic, partial curve, poor fit]
32 | CC1(C)CC(=O)C2=C(C1)N(c1ccccc1)C(N)=C(C#N)C2c1cccnc1 (stereo not drawn) | – | inconclusive: 23.1 µM [cytotoxic, single point]
33 | CC(=O)c1cc(C#N)c(SCC(=O)OC(C)C)nc1C | – | inconclusive: 29.1 µM [cytotoxic, partial curve, poor fit]
34 | O=C(Nc1ccccn1)c1c(O)c2cccc3c2n(c1=O)CCC3 | – | inconclusive: 3.26 µM [cytotoxic, full curve, poor fit]
35 | C/C(CC1CC2=C(CC1(C)C)C(C)(C)CCC2)=N\NC(N)=S (stereo not drawn) | – | inconclusive: 16.4 µM [cytotoxic, single point]
36 | N#CC(c1ccccc1)C1CCN(Cc2ccccc2)CC1 (stereo not drawn) | – | active: 20.6 µM
37 | COc1cc(CCC(=O)Nc2ccc(C)c(S(=O)(=O)N(C)C)c2)cc(OC)c1OC | – | inconclusive: 20.6 µM [cytotoxic, single point]
38 | O=C(CCCNC(=O)c1ccc(Cl)cc1)Nc1ccc(F)c(S(=O)(=O)N2CCOCC2)c1 | – | inconclusive: 0.517 µM [rising, full curve, poor fit]
39 | CC(C)Cn1c(/C=C/c2ccco2)nc2ccccc21 | – | inconclusive: 20.6 µM [cytotoxic, single point]
40 | Cc1onc(NC(=O)NC(=O)c2c(F)cccc2Cl)c1Br | – | inconclusive: 0.103 µM [rising, full curve]
41 | COc1nc(OC)nc(N2CCC(C(=O)NCC3CCCCC3)CC2)n1 | – | active: 18.4 µM
42 | CCN(CC)S(=O)(=O)c1ccc2c(c1)N(CC(=O)Nc1ccc(OC)cc1)C(=O)CS2 | inactive: 11.5% | –
43 | O=C(Oc1c(Cl)cc(Cl)c2cccnc12)c1ccco1 | – | active: 2.06 µM
44 | O=C(CN(c1ccccc1F)S(=O)(=O)c1ccccc1)Nc1ccccc1C(=O)N1CCOCC1 | inactive: -27.8% | –
45 | O=C(Nc1c2c(nn1-c1ccc(F)cc1)CS(=O)(=O)C2)C12CC3CC(CC(C3)C1)C2 | – | active: 23.1 µM
46 | Cc1ccc(C2CC2C(=O)NNC(=S)Nc2cccc(C)c2)cc1 (stereo not drawn) | – | active: 16.4 µM

Row | SMILES | activity change, negative = cytotoxicity | Potency
47 | CCc1sc(C(=O)Nc2ncccc2O)cc1C | – | inconclusive: 29.1 µM [cytotoxic, single point]
48 | COCCNC(=S)N(CCc1c(C)[nH]c2ccc(F)cc12)Cc1ccc(C)cc1 | – | inconclusive: 29.1 µM [cytotoxic, single point]
49 | CCOC(=O)C1=C(COC(=O)c2cccnc2SC)NC(=O)NC1C (stereo not drawn) | – | inconclusive: 16.4 µM [rising, single point]
50 | O=C(NCC(c1ccc(F)cc1)N1CCOCC1)c1cccnc1Sc1ccccc1 (stereo not drawn) | – | inconclusive: 29.1 µM [cytotoxic, single point]
51 | CCNc1nc(NC(C)C)nc(Oc2ccc(OCc3ccccc3)nn2)n1 | – | inconclusive: 20.6 µM [cytotoxic, partial curve, poor fit]
52 | Cc1cc(C(F)(F)F)c(C#N)c(SCC(=O)Nc2nc3cc(Br)ccc3s2)n1 | – | inconclusive: 16.4 µM [cytotoxic, partial curve, poor fit]
53 | Cc1cc(-c2ccccc2)nc(N/N=C/c2ccc(N(C)C)cc2)n1 | – | inconclusive: 14.6 µM [cytotoxic, partial curve, poor fit]
54 | O=C(NCCc1nc2ccccc2[nH]1)/C(=C/c1ccc2c(c1)OCO2)NC(=O)c1ccc(Cl)cc1Cl | inactive: 0% | –
55 | CCOC(=O)CC(=O)CSc1nc(N)c(C#N)c(-c2ccc(Cl)cc2)c1C#N | – | inconclusive: 32.6 µM [cytotoxic, single point]
56 | CN(C)C(CNC(=O)c1ccc(S(=O)(=O)Nc2ccccc2F)cc1)c1ccco1 (stereo not drawn) | – | inconclusive: 18.4 µM [cytotoxic, single point]
57 | CCOc1ccc(Cl)cc1CNCCCSc1nnnn1C | inactive: 4.35% | –
58 | N#Cc1ccccc1OCc1nnc(-c2ccccc2Br)o1 | – | inconclusive: 10.3 µM [cytotoxic, partial curve]
59 | N#CCCN(C(=O)COc1ccc(F)cc1Br)c1ccccc1F | inactive: 0.0267% | –
60 | COc1ccc(Cn2nnnc2C(c2cc3cccc(C)c3[nH]c2=O)N2CCOCC2)cc1 (stereo not drawn) | – | inconclusive: 25.1 µM [cytotoxic, single point]
61 | O=C1CCCC2=C1C1(CCCC1)N=C(Nc1nc3cc(Cl)ccc3o1)N2 | – | inconclusive: 29.1 µM [rising, single point]
62 | O=C(N1CCN(CCO)CC1)N1c2ccccc2C=Cc2ccccc21 | inactive: 12.5% | –
63 | CC(C)(C)OC(=O)N1Cc2[nH]c3ccccc3c2C[C@@H]1C(=O)O | inactive: -1.63% | –
64 | Cc1ccc(S(=O)(=O)N2CCN(c3nn(C)c(=O)n(C)c3=O)CC2)cc1C | – | inconclusive: 0.184 µM [rising, full curve]
65 | CC(C)(C)c1ccc(C(=O)Nc2ccc(Oc3cccnc3)nc2)cc1 | – | inconclusive: 29.1 µM [cytotoxic, single point]
66 | Cn1c(SCC(=O)Nc2nccs2)nnc1C1CC1 | – | inconclusive: 29.1 µM [rising, single point]
67 | CN1CCN(c2ccccc2NC(=O)c2cc(Br)ccc2Cl)CC1 | – | inconclusive: 8.2 µM [cytotoxic, partial curve, poor fit]
68 | Cc1cc(OCc2cc(C(=O)N(Cc3nccn3C)C(C)C)no2)cc(C)c1Cl | – | inconclusive: 20.6 µM [cytotoxic, single point]

4 entries from above, with tabs:
Row	SMILES	activity change, negative = cytotoxicity	Potency
57	CCOc1ccc(Cl)cc1CNCCCSc1nnnn1C	inactive: 4.35%	–
58	N#Cc1ccccc1OCc1nnc(-c2ccccc2Br)o1	–	inconclusive: 10.3 µM [cytotoxic, partial curve]
59	N#CCCN(C(=O)COc1ccc(F)cc1Br)c1ccccc1F	inactive: 0.0267%	–
60	COc1ccc(Cn2nnnc2C(c2cc3cccc(C)c3[nH]c2=O)N2CCOCC2)cc1 (stereo not drawn)	–	inconclusive: 25.1 µM [cytotoxic, single point]
